This note sets out measurements from PubChem BioAssay AID330 (DTP/NCI, 2004).

SMILES strings stand for the structures. The list shows only some results of the screen, not a fair sample: it gathers tests that were run many times, whatever their T/C, doses with no T/C, and many T/C values between a quarter and a half above the control. Other doses and runs of a compound stand elsewhere. T/C is the treated group as % of the vehicle group. Some doses have a count of surviving animals in place of a T/C: the source files T/C as zero there, which appears to mark a toxic dose or a test without result, not a measured value. Some survivor counts are full or nearly so, which does not show that the dose was tolerated: the source hardly ever lists a survival T/C far under the control, and the zero likely stands for such cases as well. Survivors were counted at the toxicity check, usually on the fifth day, unless a day is given; later deaths do not show. Schedule codes are those of the source, read here as Q, the interval in days (D) or hours (H), X, the number of doses. Some structures stand for samples that the source files as different forms (salt, stereo form or complex); doses refer to the form tested. For survival time, the PubChem record calls one and a half times the control and up active, and a quarter to a half above the control has no call in these data; cut-offs in other NCI protocols can differ. Some entries hold several experiments; the values are given in rising order. Brackets with × give the number of equal values in this list. Some T/C values carry the count of animals alive at the toxicity check (mostly the fifth day); where none is given, no animal had died by that day.

This assay relates to P388 leukemia ip, CD2F1 mice, survival T/C. Put plainly: NCI In Vivo Anticancer Drug Screen. Data for tumor model P388 Leukemia (intraperitoneal) in CD2F1 (CDF1) mice. To be noted: T/C endpoint: median survival time, higher T/C = longer survival.
Setting [1] is: dose: 400.0 mg/kg/injection, schedule: Q04DX002 (ip), vehicle: Klucel (hydroxypropylcellulose) (HPC).
Setting [2] is: dose: 400.0 mg/kg/injection, schedule: Q04DX003 (ip), vehicle: saline with Tween-80.
Setting [3] is: dose: 200.0 mg/kg/injection, schedule: Q01DX009 (ip), vehicle: Klucel (hydroxypropylcellulose) (HPC).
The mark [4] stands for this setting: dose: 100.0 mg/kg/injection, schedule: Q01DX005 (ip), vehicle: saline with Tween-80.
Setting [5] is: dose: 200.0 mg/kg/injection, schedule: Q01DX005 (ip), vehicle: saline with Tween-80.
Where [6] appears, read: dose: 2.5 mg/kg/injection, schedule: Q01DX005 (ip), vehicle: Klucel (hydroxypropylcellulose) (HPC).
Where [7] appears, read: dose: 200.0 mg/kg/injection, schedule: Q01DX005 (ip), vehicle: Klucel (hydroxypropylcellulose) (HPC).
Setting [8] is: dose: 200.0 mg/kg/injection, schedule: Q04DX003 (ip), vehicle: saline with Tween-80.
Where [9] appears, read: dose: 100.0 mg/kg/injection, schedule: Q01DX005 (ip), vehicle: Klucel (hydroxypropylcellulose) (HPC).

With `CC(/C=C/C=C/C=C/C=C/C=C/C(O)=C1/C(=O)C(CCC(=O)O)N(C)C1=O)=C\C(C)C(OC1CC(O)C(O)C(C)O1)C(C)C` (centres undefined), the T/C runs as follows: (dose: 1.0 mg/kg/injection, schedule: Q01DX005 (ip), vehicle: water) 147 % of control; (dose: 2.0 mg/kg/injection, schedule: Q01DX005 (ip), vehicle: water) 146 % of control.

On to `CC(NNC(=S)N1CCN(c2ccccn2)CC1)c1nccc2ccccc12` (centres undefined), for which, under setting [1], the survivor count is 0 of 6.

In the case of `NC(N)=NC(N)=Nc1ccc2ccc3cccc4ccc1c2c34`, the survivor count under setting [2] is on record as 0 of 6.

On to `S=C1NCC[Se]1`, for which the survivor count (dose: 25.0 mg/kg/injection, schedule: Q01DX009 (ip), vehicle: DMSO) is reported as 5 of 6; the survivor count (dose: 50.0 mg/kg/injection, schedule: Q01DX009 (ip), vehicle: DMSO) is 2 of 6; the survivor count (dose: 100.0 mg/kg/injection, schedule: Q01DX009 (ip), vehicle: DMSO) is listed as 0 of 6; the survivor count (dose: 200.0 mg/kg/injection, schedule: Q01DX009 (ip), vehicle: DMSO) is 0 of 6.

As for `COc1cc[n+](CC(=O)c2c[nH]c3ccccc23)cc1`, the survivor count under setting [3] is recorded as 0 of 6.

As to `C#CC1(O)CC(c2ccccc2)N(C)C(c2ccccc2)C1` (centres undefined), the survivor count reads like this: under setting [4], 0 of 6; under setting [5], 0 of 6.

Regarding `CCCCn1c(Cl)c(/C=N\Nc2ccc([N+](=O)[O-])cc2)c2ccccc21`, the survivor count is on record as 6 of 6 (dose: 50.0 mg/kg/injection, schedule: Q01DX001 (ip), vehicle: saline with Tween-80); 3 of 6 (dose: 200.0 mg/kg/injection, schedule: Q01DX001 (ip), vehicle: saline with Tween-80); 3 of 6 (dose: 400.0 mg/kg/injection, schedule: Q01DX001 (ip), vehicle: saline with Tween-80).

Regarding `CN(C)C1C2(C)CCC(C2)C1(C)C` (centres undefined), the survivor count under setting [5] is 0 of 6.

For `C1=NN2C3c4ccccc4C(C1)C32` (centres undefined), the survivor count (dose: 400.0 mg/kg/injection, schedule: Q01DX001 (ip), vehicle: Klucel (hydroxypropylcellulose) (HPC)) is recorded as 0 of 6.

On to `COc1cccc2c1C(=O)C1=C(C2=O)c2c(O)cc(CO)cc2C(O)C1O` (centres undefined), for which, under “dose: 50.0 mg/kg/injection, schedule: Q01DX005 (ip), vehicle: saline + Tween-80 + alcohol”, the survivor count was 3 of 6.

Take `[Cl][Pt+2][Cl].[NH-]C(c1ccccc1)C([NH-])c1ccccc1` (centres undefined): the T/C by setting is: (dose: 6.25 mg/kg/injection, schedule: Q04DX002 (ip), vehicle: saline with Tween-80) 126 and 134 % of control; (dose: 12.5 mg/kg/injection, schedule: Q01DX001 (ip), vehicle: Klucel (hydroxypropylcellulose) (HPC)) 125 % of control; (dose: 12.5 mg/kg/injection, schedule: Q04DX002 (ip), vehicle: saline with Tween-80) 128 and 139 % of control; (dose: 25.0 mg/kg/injection, schedule: Q01DX001 (ip), vehicle: Klucel (hydroxypropylcellulose) (HPC)) 131 % of control; (dose: 25.0 mg/kg/injection, schedule: Q04DX002 (ip), vehicle: saline with Tween-80) 129 (2×), 142, 148 % of control; (dose: 50.0 mg/kg/injection, schedule: Q01DX001 (ip), vehicle: Klucel (hydroxypropylcellulose) (HPC)) 138 % of control. Under “dose: 50.0 mg/kg/injection, schedule: Q04DX002 (ip), vehicle: saline with Tween-80”, the T/C is 133 and 135 % of control.

Consider `COC(=O)c1nc2nnc(NC(=O)Nc3ccc(Cl)cc3)n2c(-c2ccccc2)c1C`, for which, under “dose: 240.0 mg/kg/injection, schedule: Q01DX005 (ip), vehicle: saline with Tween-80”, the survivor count is 6 of 6.

Regarding `NCCCNCCCCNC(=O)C(O)NC(=O)CC(O)CCCCN=C(N)N` (centres undefined), the T/C by setting is: (dose: 12.5 mg/kg/injection, schedule: Q01DX005 (ip), vehicle: saline) 145 % of control; (dose: 25.0 mg/kg/injection, schedule: Q01DX005 (ip), vehicle: saline) 142 % of control. Further, under “dose: 200.0 mg/kg/injection, schedule: Q01DX005 (ip), vehicle: saline”, the survivor count is listed as 0 of 6.

For `COC(=O)C12OCC34C(CC5C(C)C6=CC(=O)OC6=CC5(C)C3C(O)C1O)OC(=O)C(O)C24` (centres undefined), under setting [6], the T/C is 138 % of control [5 of 6 alive]. Further, the survivor count was 0 of 6 under setting [6]; 0 of 6 (dose: 5.0 mg/kg/injection, schedule: Q01DX005 (ip), vehicle: Klucel (hydroxypropylcellulose) (HPC)); 0 of 6 (dose: 10.0 mg/kg/injection, schedule: Q01DX005 (ip), vehicle: Klucel (hydroxypropylcellulose) (HPC)); 0 of 6 (dose: 20.0 mg/kg/injection, schedule: Q01DX005 (ip), vehicle: Klucel (hydroxypropylcellulose) (HPC)).

In the case of `CCCC[N+]1(C)CCC(OC(=O)C(O)(c2ccccc2)C2CCCC2)C1` (centres undefined), the survivor count (dose: 100.0 mg/kg/injection, schedule: Q01DX009 (ip), vehicle: Klucel (hydroxypropylcellulose) (HPC)) is on record as 6 of 6 and the survivor count under setting [3] was 6 of 6.

`Cc1ccc(N=Nc2c(C)nn(C(=S)S)c2C)cc1`: the survivor count under setting [1] is 1 of 5.

For the compound `CC1NCCCN(CCN(C)C)CCCNC(C)c2cccc1n2` (centres undefined), the survivor count (dose: 400.0 mg/kg/injection, schedule: Q01DX001 (ip), vehicle: saline) is 0 of 6.

Turning to `O=C1OC(C(Cl)(Cl)Cl)Nc2ccccc21` (centres undefined), the survivor count under setting [7] is listed as 4 of 5.

As to `CC(C)N(C(C)C)P1(=NC(C)(C)C)N(C(C)(C)C)P(=NC(C)(C)C)(N(C(C)C)C(C)C)N1C(C)(C)C` (centres undefined), under setting [7], the survivor count was 3 of 6.

On to `C[C@H]1C[C@@H]2[C@H]([C@@H](O)C[C@@]3(C)[C@H]2CC[C@]3(O)C(=O)CO)[C@@]2(C)C=CC(=O)C=C12`, for which, for the setting “dose: 100.0 mg/kg/injection, schedule: Q01DX009 (ip), vehicle: saline with Tween-80”, the survivor count is listed as 6 of 6. In addition, the T/C under setting [8] was 137 % of control.

`CC1(C)OCC(C2CCC3(C)C4=CCC5C(C)(C)C(O)CCC5(C)C4CCC23C)CC(O)C1O` (centres undefined): the T/C is 138 % of control (dose: 1.25 mg/kg/injection, schedule: Q01DX009 (ip), vehicle: alcohol); 130 % of control (dose: 2.5 mg/kg/injection, schedule: Q01DX009 (ip), vehicle: alcohol); 136 % of control (dose: 5.0 mg/kg/injection, schedule: Q01DX009 (ip), vehicle: alcohol); 136 % of control (dose: 10.0 mg/kg/injection, schedule: Q01DX009 (ip), vehicle: alcohol).

As to `CCC(C)(C)c1cccc(C(=O)O)c1O`, the survivor count is reported as 0 of 6 under setting [8] and 0 of 6 under setting [2].

For `N=c1ccn2c(n1)OC1C(O)C(CCl)OC12` (centres undefined), under “dose: 400.0 mg/kg/injection, schedule: Q01DX009 (ip), vehicle: saline”, the survivor count is on record as 1 of 6.

With `COc1ccc2[nH]c3ccc4cc[n+](CCN5CCC(C6CCN(CC[n+]7ccc8ccc9[nH]c%10ccc(OC)cc%10c9c8c7)CC6)CC5)cc4c3c2c1`, the T/C by setting is: (dose: 4.0 mg/kg/injection, schedule: Q01DX005 (ip), vehicle: water) 144 % of control; under setting [9], 141 % of control. Besides, the survivor count reads like this: (dose: 64.0 mg/kg/injection, schedule: Q01DX005 (ip), vehicle: water) 0 of 6; under setting [9], 0 of 10; (dose: 100.0 mg/kg/injection, schedule: Q01DX005 (ip), vehicle: other) 6 of 6; under setting [7], 6 of 6; (dose: 200.0 mg/kg/injection, schedule: Q01DX005 (ip), vehicle: other) 4 of 6.

Turning to `COc1cc(Br)c(/C=C/[N+](=O)[O-])cc1OC`, the survivor count runs as follows: under setting [8], 4 of 6; under setting [2], 3 of 6.

Consider `O=NC1C2CCC(C2)C1N=O.[Co].[c-]1[c-][c-][cH-][c-]1` (centres undefined), for which the survivor count is, setting by setting: under setting [4], 0 of 6; under setting [5], 0 of 6.
